Survivor count and T/C data for 26 compounds are collected here from PubChem BioAssay AID330 (DTP/NCI, 2004).

The test system of the assay is P388 leukemia ip, CD2F1 mice, survival T/C. Briefly: NCI In Vivo Anticancer Drug Screen. Data for tumor model P388 Leukemia (intraperitoneal) in CD2F1 (CDF1) mice. The note with it: T/C endpoint: median survival time, higher T/C = longer survival.
The mark [1] stands for this setting: dose: 100.0 mg/kg/injection, schedule: Q01DX005 (ip), vehicle: saline with Tween-80.
The mark [2] stands for this setting: dose: 200.0 mg/kg/injection, schedule: Q01DX005 (ip), vehicle: saline with Tween-80.
[3] abbreviates: dose: 50.0 mg/kg/injection, schedule: Q01DX005 (ip), vehicle: saline with Tween-80.
[4] abbreviates: dose: 240.0 mg/kg/injection, schedule: Q01DX005 (ip), vehicle: saline.
Setting [5] is: dose: 25.0 mg/kg/injection, schedule: Q01DX009 (ip), vehicle: saline with Tween-80.
The mark [6] stands for this setting: dose: 50.0 mg/kg/injection, schedule: Q01DX009 (ip), vehicle: saline with Tween-80.
Where [7] appears, read: dose: 100.0 mg/kg/injection, schedule: Q04DX003 (ip), vehicle: saline with Tween-80.
[8] abbreviates: dose: 100.0 mg/kg/injection, schedule: Q01DX009 (ip), vehicle: saline.
The mark [9] stands for this setting: dose: 60.0 mg/kg/injection, schedule: Q01DX005 (ip), vehicle: saline with Tween-80.
The mark [10] stands for this setting: dose: 240.0 mg/kg/injection, schedule: Q01DX005 (ip), vehicle: saline with Tween-80.
[11] abbreviates: dose: 50.0 mg/kg/injection, schedule: Q01DX005 (ip), vehicle: Klucel (hydroxypropylcellulose) (HPC).
The mark [12] stands for this setting: dose: 100.0 mg/kg/injection, schedule: Q01DX005 (ip), vehicle: Klucel (hydroxypropylcellulose) (HPC).
Setting [13] is: dose: 200.0 mg/kg/injection, schedule: Q01DX005 (ip), vehicle: Klucel (hydroxypropylcellulose) (HPC).
Setting [14] is: dose: 200.0 mg/kg/injection, schedule: Q01DX009 (ip), vehicle: saline with Tween-80.
Where [15] appears, read: dose: 400.0 mg/kg/injection, schedule: Q01DX009 (ip), vehicle: saline with Tween-80.

The list does not hold the whole screen: it is rich in T/C values a quarter to a half above the control, in often repeated tests (any T/C) and in doses without a T/C. Further doses and runs are listed elsewhere. T/C gives the treated animals as a percentage of the vehicle group. Some entries give survivors of the animals treated and no T/C: the source holds a T/C of zero for them, seemingly a mark for toxic or unscored doses. Some doses without a T/C left all or most animals alive at the check, yet need not have been tolerated: the source hardly ever lists a survival T/C far under the control, and the zero likely stands for such cases as well. Survivors were counted at the toxicity check, usually on the fifth day, unless a day is given; later deaths do not show. Schedules are NCI's codes, read here as Q, the interval in days (D) or hours (H), X, the number of doses. Some entries were tested several times; their values stand side by side, smallest first. Where survival is the endpoint, the PubChem record calls one and a half times the control and up active, and a quarter to a half above the control has no call in these data; cut-offs in other NCI protocols can differ. Counts like (3×) say how often a value occurs here. Some T/C values are followed by the survivors on the day toxicity was checked, most often the fifth; without a count, all were alive then.

As to `COc1ccccc1N/N=c1/c2n(-c3ccc(Cl)cc3)c(=S)n(-c3ccccn3)c1=NCCN=2`, the survivor count reads like this: under setting [1], 4 of 6; under setting [2], 1 of 6.

With `Nc1nc(=S)c2ncn(C3OC(CO)C(O)C3O)c2[nH]1` (stereo not drawn), the T/C reads like this: (dose: 4.0 mg/kg/injection, schedule: Q01DX010 (ip), vehicle: saline) 127 % of control; under setting [3], 126 % of control; (dose: 200.0 mg/kg/injection, schedule: Q04DX003 (ip), vehicle: saline sonified) 136 % of control; (dose: 200.0 mg/kg/injection, schedule: Q04DX003 (ip), vehicle: saline with Tween-80) 130 % of control; (dose: 300.0 mg/kg/injection, schedule: Q04DX003 (ip), vehicle: saline with Tween-80) 126 % of control. Under “dose: 16.0 mg/kg/injection, schedule: Q01DX010 (ip), vehicle: saline”, the survivor count is given as 6 of 6.

`Cn1c2ccccc2c(=O)c2c([N+](=O)[O-])ccc(NCCN)c21`: the survivor count under setting [4] is 0 of 6.

Turning to `O=C1CC2c3ccccc3CCN2C2=C1CCC2` (stereo not drawn), the survivor count under setting [2] is 0 of 6.

For the compound `CCN=C(N)Nc1ccc(NC(=O)c2ccc(C(=O)Nc3ccc(NC(N)=NCC)cc3)cc2)cc1`, the T/C (dose: 12.5 mg/kg/injection, schedule: Q04DX003 (ip), vehicle: saline with Tween-80) is 140 % of control. In addition, the survivor count runs as follows: under setting [5], 6 of 6; under setting [6], 6 of 6; under setting [7], 6 of 6.

On to `Nc1ccc2c(NCCCCCCNc3c4ccccc4nc4cc(N)ccc34)c3ccccc3nc2c1`, for which the T/C is 142 % of control (dose: 1.25 mg/kg/injection, schedule: Q01DX009 (ip), vehicle: other); 139 % of control (dose: 2.5 mg/kg/injection, schedule: Q01DX009 (ip), vehicle: other); 145 % of control (dose: 5.0 mg/kg/injection, schedule: Q01DX009 (ip), vehicle: other); 147 % of control (dose: 10.0 mg/kg/injection, schedule: Q01DX009 (ip), vehicle: other); 145 % of control (dose: 20.0 mg/kg/injection, schedule: Q01DX009 (ip), vehicle: other).

Consider `CCOC(=O)/C(C#N)=C/Nc1cc(C(=O)OC)ccc1C`, for which the survivor count under setting [2] is 3 of 5.

On to `COC(=O)c1ccoc1`, for which, under setting [8], the T/C was 125 % of control.

For the compound `CN(C)C1(c2ccccc2)N=NN=S1C` (stereo not drawn), for the setting “dose: 400.0 mg/kg/injection, schedule: Q04DX003 (ip), vehicle: saline with Tween-80”, the survivor count is 0 of 6.

As to `c1ccc2c(c1)N=C(NNC1=Nc3ccccc3SC1)CS2`, the survivor count is 6 of 6 under setting [9]; 6 of 6 (dose: 120.0 mg/kg/injection, schedule: Q01DX005 (ip), vehicle: saline with Tween-80); 6 of 6 under setting [10].

Regarding `O=[N+]([O-])[O][Sn]([O][Sn]([O][N+](=O)[O-])([c]1ccccc1)[c]1ccccc1)([c]1ccccc1)[c]1ccccc1`, the T/C (dose: 3.12 mg/kg/injection, schedule: Q01DX005 (ip), vehicle: saline) is 125 % of control; the T/C (dose: 6.25 mg/kg/injection, schedule: Q01DX005 (ip), vehicle: saline) was 137 % of control; the T/C (dose: 12.5 mg/kg/injection, schedule: Q01DX005 (ip), vehicle: saline) is 138 % of control. In addition, the survivor count by setting is: (dose: 25.0 mg/kg/injection, schedule: Q01DX005 (ip), vehicle: saline) 3 of 6; under setting [11], 2 of 6; (dose: 50.0 mg/kg/injection, schedule: Q01DX005 (ip), vehicle: saline) 1 of 6; under setting [12], 0 of 6; under setting [13], 0 of 6.

Consider `COc1cc(C2c3c(oc4ccccc4c3=O)Oc3oc4ccccc4c(=O)c32)cc(OC)c1O`, for which, under setting [9], the survivor count was 6 of 6.

Consider `c1ccc2cc3n[se]nc3cc2c1`, for which the survivor count under setting [10] is 4 of 6.

Take `Cc1c(OCC(=O)N/N=C/c2ccc(N(CCCl)CCCl)cc2)ccc2c(=O)c3ccccc3oc12`: the survivor count (dose: 240.0 mg/kg/injection, schedule: Q01DX005 (ip), vehicle: Klucel (hydroxypropylcellulose) (HPC)) is reported as 3 of 6.

On to `Cc1cccc(C2N=C3Oc4ccccc4C=C3C(=O)N2)c1` (stereo not drawn), for which the survivor count under setting [13] was 2 of 6.

`COc1cc(C=Nc2ccc(C(=O)O)cc2)ccc1N(CCCl)CCCl`: the T/C was 130 % of control (dose: 16.5 mg/kg/injection, schedule: Q04DX003 (ip), vehicle: saline with Tween-80); 140 % of control [5 of 6 alive] (dose: 25.0 mg/kg/injection, schedule: Q04DX003 (ip), vehicle: saline with Tween-80, evaluated on day 20); 125 % of control [5 of 6 alive] (dose: 25.0 mg/kg/injection, schedule: Q04DX003 (ip), vehicle: saline with Tween-80, evaluated on day 30). For the same compound, under setting [7], the survivor count is 4 of 6.

In the case of `CCCCCCCCCCCCCCCCCC[N+]1(CCC(C)C)CCSCC1`, for the setting “dose: 400.0 mg/kg/injection, schedule: Q01DX001 (ip), vehicle: saline with Tween-80”, the survivor count was 5 of 6.

Take `COC1CC(OC2CCC3(C)C(CCC45CCC(C6=CC(=O)OC6)C(C)(CCC43)C5=O)C2)OC(C)C1O` (stereo not drawn): the survivor count by setting is: (dose: 25.0 mg/kg/injection, schedule: Q01DX005 (ip), vehicle: Klucel (hydroxypropylcellulose) (HPC)) 5 of 5; under setting [11], 5 of 5; under setting [12], 5 of 5; under setting [13], 5 of 5.

Consider `CCc1nc(N)nc(N)c1-c1ccc(NC)c(N)c1`, for which the survivor count (dose: 400.0 mg/kg/injection, schedule: Q04DX002 (ip), vehicle: Klucel (hydroxypropylcellulose) (HPC)) was 0 of 6.

Turning to `COC1=C(OC)C(=O)C(SC/C=C(\C)CCCC(C)CCCC(C)CCCC(C)C)=CC1=O` (stereo not drawn), the T/C reads like this: (dose: 12.5 mg/kg/injection, schedule: Q01DX009 (ip), vehicle: saline with Tween-80) 109, 122, 123, 135 % of control; under setting [5], 117, 121, 132, 136 % of control; under setting [6], 124, 132, 135, 145 % of control; (dose: 100.0 mg/kg/injection, schedule: Q01DX009 (ip), vehicle: saline with Tween-80) 125 (2×) and 136 % of control (2×); under setting [14], 94, 123, 127 % of control; under setting [15], 137 % of control. Moreover, the survivor count under setting [14] was 5 of 6; the survivor count under setting [15] is 1 of 6 and 2 of 6.

On to `CC1(CBr)C2CCC1C(=O)C2` (stereo not drawn), for which the survivor count is listed as 2 of 6 under setting [3], 1 of 6 under setting [1] and 0 of 6 under setting [2].

With `Cc1cccc(NN=O)n1`, the T/C is 141 % of control (dose: 6.25 mg/kg/injection, schedule: Q01DX009 (ip), vehicle: water); 144 and 149 % of control (dose: 12.5 mg/kg/injection, schedule: Q01DX009 (ip), vehicle: water). Also, under “dose: 25.0 mg/kg/injection, schedule: Q01DX009 (ip), vehicle: water”, the survivor count was 6 of 6.

For the compound `CC(CN(CC(=O)O)CC(=O)O)N(CC(=O)O)CC(=O)O.[Cl][Pd][Cl]` (stereo not drawn), the survivor count under setting [4] is recorded as 2 of 6.

In the case of `S=C(NCc1ccccc1)NNc1nnc(-c2ccccc2)c(-c2ccccc2)n1`, the survivor count under setting [3] was 6 of 6, the survivor count under setting [1] was 5 of 6 and the survivor count under setting [2] is 6 of 6.

Regarding `Cc1ccc2c(c1)-c1[nH]c3ccccc3c1CS2`, where the note is “dose: 400.0 mg/kg/injection, schedule: Q04DX003 (ip), vehicle: Klucel (hydroxypropylcellulose) (HPC)”, the survivor count was 3 of 6.

Regarding `CCCCCCCCCCCC(C)[N+](C)(C)[O-]` (stereo not drawn), the survivor count reads like this: under setting [8], 6 of 6; (dose: 200.0 mg/kg/injection, schedule: Q01DX009 (ip), vehicle: saline) 0 of 6.
